This passage reports binding results from paper PMC13315262.

Protein sequences, listed by entry. Tags and fused reporters are not part of them.
UniProt Q96LB1: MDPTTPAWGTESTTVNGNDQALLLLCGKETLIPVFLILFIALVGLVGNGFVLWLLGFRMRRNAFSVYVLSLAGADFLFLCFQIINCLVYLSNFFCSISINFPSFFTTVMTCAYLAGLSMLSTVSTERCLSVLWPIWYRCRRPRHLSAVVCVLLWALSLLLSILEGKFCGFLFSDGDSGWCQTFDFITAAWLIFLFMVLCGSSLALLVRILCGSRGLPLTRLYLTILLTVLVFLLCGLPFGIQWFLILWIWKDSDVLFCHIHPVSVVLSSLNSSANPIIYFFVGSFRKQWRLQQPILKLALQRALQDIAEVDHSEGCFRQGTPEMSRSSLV

Results are given in words; binding and its absence hold for the method and conditions named. Some entries that bind do so weakly or less than the wild type.

Sequences and labels used below:
B1: Nanobody Sim4784 R101E, monomeric (VHH)
VHH: QVQLQESGGGLVQAGGSLRLSCAASGTISPPTYMGWYRQAPGKERELVASIGAGSNTNYADSVKGRFTISRDNAKNTVYLQMNSLKPEDTAVYYCAAIFGELWYHLYWGQGTQVTVSS
B2: Nanobody Sim4784 W103D, monomeric (VHH)
VHH: QVQLQESGGGLVQAGGSLRLSCAASGTISPPTYMGWYRQAPGKERELVASIGAGSNTNYADSVKGRFTISRDNAKNTVYLQMNSLKPEDTAVYYCAAIFGRLDYHLYWGQGTQVTVSS
B3: Nanobody Sim4784 W103G, monomeric (VHH)
VHH: QVQLQESGGGLVQAGGSLRLSCAASGTISPPTYMGWYRQAPGKERELVASIGAGSNTNYADSVKGRFTISRDNAKNTVYLQMNSLKPEDTAVYYCAAIFGRLGYHLYWGQGTQVTVSS

The assay has as its target MAS-related GPR family member X2 (MRGPRX2), FLAG-tagged, on transfected HEK293T cells (human) (UniProt Q96LB1). Briefly: flow cytometry on cells; monomeric V5-tagged nanobody at the indicated concentrations, 1 hour (methods: 1-2 h) at 4 °C, on HEK293T cells transiently transfected with human FLAG-MRGPRX2 or empty vector (pcDNA); HBS + 0.1% BSA + 2 mM calcium; detected with anti-V5-APC; specific MRGPRX2 binding normalized to 1 μM WT; only the binder purified. Background: A flow cytometer gives signals particle by particle.
In the case of B1, the binding entry is “binds weakly”.

For the molecule B2, the binding entry is “binds weakly”.

B3: the binding result is “binds weakly”.
